# Measured values published in PubChem BioAssay AID330 (DTP/NCI, 2004).
# The list shows only some results of the screen, not a fair sample: it gathers tests that were run many times, whatever their T/C, doses with no T/C, and many T/C values between a quarter and a half above the control. Other doses and runs of a compound stand elsewhere. T/C is the treated group as % of the vehicle group. Some entries give survivors of the animals treated and no T/C: the source files T/C as zero there, which appears to mark a toxic dose or a test without result, not a measured value. Some survivor counts are full or nearly so, which does not show that the dose was tolerated: survival well below the control is almost never listed, so the zero probably covers shortened survival too. Survivors were counted at the toxicity check, usually on the fifth day, unless a day is given; later deaths do not show. Schedules are NCI's codes, read here as Q, the interval in days (D) or hours (H), X, the number of doses. Some entries were tested several times; their values stand side by side, smallest first. For survival time, this PubChem deposit counts one and a half times the control or more as active, and values a quarter to a half above the control carry no call in these data; other NCI protocols may use other cut-offs. Some T/C values are followed by the survivors on the day toxicity was checked, most often the fifth; without a count, all were alive then.
# Test system: P388 leukemia ip, CD2F1 mice, survival T/C
# Assay: NCI In Vivo Anticancer Drug Screen. Data for tumor model P388 Leukemia (intraperitoneal) in CD2F1 (CDF1) mice
# Conditions: T/C endpoint: median survival time, higher T/C = longer survival
# [1] = dose: 240.0 mg/kg/injection, schedule: Q01DX005 (ip), vehicle: saline with Tween-80
# [2] = dose: 200.0 mg/kg/injection, schedule: Q01DX005 (ip), vehicle: DMSO
# [3] = dose: 200.0 mg/kg/injection, schedule: Q01DX009 (ip), vehicle: saline
# [4] = dose: 400.0 mg/kg/injection, schedule: Q01DX009 (ip), vehicle: water
# [5] = dose: 25.0 mg/kg/injection, schedule: Q01DX009 (ip), vehicle: saline with Tween-80
smiles,measurement,setting,value
CC(C)NC(=O)OCc1c(COC(=O)NC(C)C)c2n(c1-c1ccc(Cl)c(Cl)c1)CCS2(=O)=O,survivor count,"dose: 200.0 mg/kg/injection, schedule: Q01DX005 (ip), vehicle: saline with Tween-80",6 of 6
same,survivor count,"dose: 400.0 mg/kg/injection, schedule: Q01DX005 (ip), vehicle: saline with Tween-80",6 of 6
CN(Cc1cnc2nc(N[Si](C)(C)C)nc(N[Si](C)(C)C)c2n1)c1ccc(C(=O)NC(CCC(=O)O[Si](C)(C)C)C(=O)O[Si](C)(C)C)cc1 (centres undefined),T/C,"dose: 5.0 mg/kg/injection, schedule: Q01DX009 (ip), vehicle: saline",134 % of control
same,survivor count,"dose: 10.0 mg/kg/injection, schedule: Q01DX009 (ip), vehicle: saline",3 of 6
same,survivor count,"dose: 20.0 mg/kg/injection, schedule: Q01DX009 (ip), vehicle: saline",3 of 6
same,survivor count,"dose: 120.0 mg/kg/injection, schedule: Q04DX003 (ip), vehicle: saline",5 of 6
CCCCCCCCOCCS(=O)(=O)O,survivor count,[1],5 of 6
COC(=O)C(Cc1ccccc1)NCCNC(C)=O (centres undefined),survivor count,"dose: 400.0 mg/kg/injection, schedule: Q04DX003 (ip), vehicle: saline with Tween-80",2 of 6
COc1c(-c2ccc3c(c2)OCO3)oc2cc(O)cc(O)c2c1=O,survivor count,"dose: 50.0 mg/kg/injection, schedule: Q01DX005 (ip), vehicle: saline with Tween-80",5 of 5
COc1ccc2nc3cc(Cl)ccc3c(NCC3CCCN4CCCCC34)c2c1 (centres undefined),survivor count,"dose: 200.0 mg/kg/injection, schedule: Q01DX005 (ip), vehicle: distilled water + Tween-80",0 of 6
CC(C)[C@]12O[C@H]1[C@@H]1O[C@]13[C@]1(O[C@H]1C[C@H]1C4=C(C(=O)OC4)[C@@H](O)C[C@@]13C)[C@@H]2O,T/C,"dose: 0.06 mg/kg/injection, schedule: Q01DX009 (ip), vehicle: saline + alcohol",128 % of control
same,T/C,"dose: 0.13 mg/kg/injection, schedule: Q01DX009 (ip), vehicle: saline + alcohol",130 and 136 % of control
same,T/C,"dose: 0.2 mg/kg/injection, schedule: Q01DX009 (ip), vehicle: saline + alcohol",134 % of control
same,T/C,"dose: 0.25 mg/kg/injection, schedule: Q01DX005 (ip), vehicle: saline + alcohol",131 % of control
same,survivor count,"dose: 0.4 mg/kg/injection, schedule: Q01DX009 (ip), vehicle: saline + alcohol",5 of 6
same,survivor count,"dose: 0.5 mg/kg/injection, schedule: Q01DX005 (ip), vehicle: saline + alcohol",6 of 6
same,survivor count,"dose: 0.5 mg/kg/injection, schedule: Q01DX009 (ip), vehicle: saline + alcohol",4 of 10 and 5 of 10
same,survivor count,"dose: 0.8 mg/kg/injection, schedule: Q01DX009 (ip), vehicle: saline + alcohol",2 of 6
same,survivor count,"dose: 1.0 mg/kg/injection, schedule: Q01DX009 (ip), vehicle: saline + alcohol",0 of 10
same,survivor count,"dose: 1.6 mg/kg/injection, schedule: Q01DX009 (ip), vehicle: saline + alcohol",0 of 6
COc1c(C#N)c2c(c(OC)c1OC)-c1ccc(OC)c(=O)cc1[C@@H](NC(C)=O)CC2,T/C,"dose: 6.25 mg/kg/injection, schedule: Q01DX009 (ip), vehicle: Klucel (hydroxypropylcellulose) (HPC)",127 % of control
same,T/C,"dose: 12.5 mg/kg/injection, schedule: Q01DX009 (ip), vehicle: Klucel (hydroxypropylcellulose) (HPC)",142 % of control
same,survivor count,"dose: 25.0 mg/kg/injection, schedule: Q01DX009 (ip), vehicle: Klucel (hydroxypropylcellulose) (HPC)",5 of 6
same,survivor count,"dose: 50.0 mg/kg/injection, schedule: Q01DX009 (ip), vehicle: Klucel (hydroxypropylcellulose) (HPC)",2 of 6
Nc1ccc(S(=O)(=O)Nc2cnc3c(Cl)cccc3n2)cc1,survivor count,"dose: 100.0 mg/kg/injection, schedule: Q01DX005 (ip), vehicle: DMSO",3 of 6
same,T/C,[2],130 % of control
same,survivor count,[2],1 of 6
same,survivor count,"dose: 300.0 mg/kg/injection, schedule: Q01DX005 (ip), vehicle: DMSO",0 of 6
same,survivor count,"dose: 400.0 mg/kg/injection, schedule: Q01DX005 (ip), vehicle: DMSO",0 of 6 and 1 of 6
same,survivor count,"dose: 800.0 mg/kg/injection, schedule: Q01DX005 (ip), vehicle: DMSO",0 of 6
same,survivor count,"dose: 1200.0 mg/kg/injection, schedule: Q01DX005 (ip), vehicle: DMSO",0 of 6
COC(=O)N1N=C(c2ccccc2)C(C(=O)OC)(C(=O)OC)c2ccccc21,survivor count,[1],6 of 6
CC(/C=C/C1OC(=O)C=CC1C)=C\C(C)C/C=C/C(C)=C/C(CO)C(=O)C(C)C(O)C(C)C/C(C)=C/C(=O)O (centres undefined),T/C,"dose: 25.0 micrograms/kg/injection, schedule: Q01DX005 (ip), vehicle: other",130 % of control
same,T/C,"dose: 50.0 micrograms/kg/injection, schedule: Q01DX005 (ip), vehicle: other",130 and 139 % of control
CC(=O)[O][Sn]([CH3])([CH3])[c]1ccccc1,survivor count,"dose: 12.5 mg/kg/injection, schedule: Q01DX009 (ip), vehicle: saline",2 of 6
same,survivor count,"dose: 25.0 mg/kg/injection, schedule: Q01DX009 (ip), vehicle: saline",0 of 6
same,survivor count,"dose: 50.0 mg/kg/injection, schedule: Q01DX009 (ip), vehicle: saline",0 of 6
same,survivor count,"dose: 100.0 mg/kg/injection, schedule: Q01DX009 (ip), vehicle: saline",0 of 6
same,survivor count,[3],0 of 6
C=C1C(=O)OC2C=CCCC12 (centres undefined),survivor count,"dose: 200.0 mg/kg/injection, schedule: Q01DX009 (ip), vehicle: water",5 of 6
NC1CC2(CCC1=O)c1ccccc1-c1ccccc12 (centres undefined),survivor count,"dose: 200.0 mg/kg/injection, schedule: Q01DX001 (ip), vehicle: saline with Tween-80",2 of 6
CC1=CC(C)=NC(N)=NN1,survivor count,[4],3 of 6
O=C1c2cccc3cc([N+](=O)[O-])cc(c23)C(=O)N1CCN1CCCC1,T/C,"dose: 3.12 mg/kg/injection, schedule: Q01DX009 (ip), vehicle: saline with Tween-80",129 % of control
same,T/C,"dose: 3.13 mg/kg/injection, schedule: Q01DX009 (ip), vehicle: saline with Tween-80",135 % of control
same,T/C,"dose: 6.25 mg/kg/injection, schedule: Q01DX009 (ip), vehicle: saline with Tween-80",140 and 141 % of control
same,T/C,"dose: 12.5 mg/kg/injection, schedule: Q01DX009 (ip), vehicle: saline with Tween-80",141 % of control
same,T/C,[5],128 % of control [4 of 6 alive]
same,survivor count,[5],6 of 6
same,survivor count,"dose: 50.0 mg/kg/injection, schedule: Q01DX009 (ip), vehicle: saline with Tween-80",5 of 6
same,survivor count,"dose: 100.0 mg/kg/injection, schedule: Q01DX009 (ip), vehicle: saline with Tween-80",2 of 6
same,survivor count,"dose: 200.0 mg/kg/injection, schedule: Q01DX009 (ip), vehicle: saline with Tween-80",0 of 6
CC(C)CCN=C(N)N=C(N)N,survivor count,"dose: 240.0 mg/kg/injection, schedule: Q01DX005 (ip), vehicle: saline",0 of 6
CCCCc1c(C#N)c(=O)n2c(N)c(C(=O)OCC)cnc2c1SC,T/C,"dose: 15.0 mg/kg/injection, schedule: Q01DX005 (ip), vehicle: saline with Tween-80",132 % of control
same,T/C,"dose: 22.5 mg/kg/injection, schedule: Q01DX005 (ip), vehicle: saline with Tween-80",129 % of control
same,survivor count,"dose: 60.0 mg/kg/injection, schedule: Q01DX005 (ip), vehicle: saline with Tween-80",2 of 6
same,survivor count,"dose: 120.0 mg/kg/injection, schedule: Q01DX005 (ip), vehicle: saline with Tween-80",0 of 6
same,survivor count,[1],0 of 6 and 3 of 6
Nc1nc(-c2cccc3ccccc23)cc2ccccc12,T/C,"dose: 25.0 mg/kg/injection, schedule: Q01DX009 (ip), vehicle: water",130 % of control
same,T/C,"dose: 50.0 mg/kg/injection, schedule: Q01DX009 (ip), vehicle: water",127 % of control
same,survivor count,[4],5 of 6
COC(=O)c1nc(N)nc(C(=O)OC)c1C(=O)c1ccc(Cl)cc1,survivor count,"dose: 240.0 mg/kg/injection, schedule: Q01DX005 (ip), vehicle: Klucel (hydroxypropylcellulose) (HPC)",2 of 6
CC(=O)c1c(OCC(O)CN2CCCCC2)ccc2c(C)cc(=O)oc12 (centres undefined),survivor count,"dose: 400.0 mg/kg/injection, schedule: Q04DX002 (ip), vehicle: saline with Tween-80",0 of 6
CNC(=O)n1cc(Cl)ccc1=O,survivor count,[3],3 of 6
same,survivor count,"dose: 400.0 mg/kg/injection, schedule: Q01DX009 (ip), vehicle: saline",1 of 6 and 3 of 6
